The target in this experiment is IGF-I (UniProt P05019). Put plainly: Western ligand blot of conditioned media, [125I] IGF-I as probe.

Protein sequences, listed by entry. Tags and fused reporters are not part of them. Lines headed by an entry give the natural chain unless they say otherwise; changes in a name come on top. Residues count along the entry.
UniProt P05019, residues 49-118: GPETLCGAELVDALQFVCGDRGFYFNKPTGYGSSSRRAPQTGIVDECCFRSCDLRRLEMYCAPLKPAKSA
UniProt P17936: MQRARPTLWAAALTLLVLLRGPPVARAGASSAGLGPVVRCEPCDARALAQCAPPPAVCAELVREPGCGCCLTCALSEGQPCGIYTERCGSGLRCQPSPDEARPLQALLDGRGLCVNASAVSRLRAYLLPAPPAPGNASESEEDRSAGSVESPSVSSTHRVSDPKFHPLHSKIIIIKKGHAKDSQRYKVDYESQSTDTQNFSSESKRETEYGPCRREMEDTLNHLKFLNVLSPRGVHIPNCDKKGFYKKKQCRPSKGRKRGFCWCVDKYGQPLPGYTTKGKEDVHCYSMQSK

Here are results for one substance from patent US20040005294A1, “IGFBP-3 in the diagnosis and treatment of cancer” (priority 2002, published 2004).

Results are given in words; binding and its absence hold for the method and conditions named. Some entries that bind do so weakly or less than the wild type.

For the substance “IGFBP-3 secreted from Ad5CMV-BP3-infected H1299 cells (human insulin growth factor binding protein 3) (from UniProt P17936 28-291)”, the binding result is reported as “binds”.
